# Assay results reported in PubChem BioAssay AID540276 (National Center for Advancing Translational Sciences (NCATS), 2011).
# Among all 300,000 compounds or so, about 5,400 (1.8%) were called active. This list was built around the results that the source calls inconclusive (neither active nor inactive); the mix of calls is not that of the screen. The call rests on the fitted dose curve; tested in HEK293 cells. Potencies of inconclusive entries are doubtful fits and often do not repeat.
# Experiment: qHTS for inhibitors of binding or entry into cells for Marburg Virus
# Conditions: Marburg virus pseudotyped entry inhibition, cell reporter; activity change, negative = inhibition: at 37.8 µM (top of the series) unless noted
# On the % scale 0 is the no-effect control and ±100 the full control effect; potency means the concentration at half of the fitted maximal effect.
Structure (SMILES),"activity change, negative = inhibition",Potency
Cc1cc2nc(C3CCCN(C(=S)Nc4ccccc4C)C3)[nH]c2cc1C (stereo not drawn),inactive: -21.1%,–
CCc1ccc(C(=O)CSc2ncn[nH]2)cc1,inactive: -0.208%,–
O=C(Nc1ccccc1N1CCOCC1)c1cnccn1,inactive: 7.87%,–
c1ccc2c(-c3cc(C4CCNCC4)[nH]n3)cccc2c1,–,"inconclusive: 35.5 µM [inhibitor, single point]"
Cc1ccc(C2C(C(=O)c3cc4ccccc4o3)=C(O)C(=O)N2CCN2CCOCC2)o1 (stereo not drawn),inactive: 29.1%,–
CN(C(=O)C1CCCN(S(=O)(=O)c2cccc([N+](=O)[O-])c2)C1)C1CCS(=O)(=O)C1 (stereo not drawn),–,"inconclusive: 6.31 µM [activator, single point]"
O=C1c2ccccc2C(=O)N1CCc1nc(-c2ccccn2)no1,–,"inconclusive: 11.6 µM [activator, partial curve, poor fit]"
c1ccc(Cn2ncc3c(NCc4ccco4)ncnc32)cc1,–,"inconclusive: 16.4 µM [inhibitor, single point]"
O=c1cc(O)c2c(=O)[nH]c(=O)n(-c3ccccc3)c2[nH]1,–,"inconclusive: 0.126 µM [inhibitor, full curve, poor fit]"
O=C(c1ccco1)N1CCN(Cc2nc3cc(Cl)ccc3c(=O)[nH]2)CC1,inactive: 9.06%,–
Cc1ccc2nc(Cl)c(C3CC(c4cccs4)=NN3S(C)(=O)=O)cc2c1 (stereo not drawn),inactive: 17.4%,–
CCCC(=O)OC1=CN(Cc2ccccc2)S(=O)(=O)c2ccccc21,inactive: -2.72% [at 46.1 µM],–
COc1ccccc1CNS(=O)(=O)c1csc(C(N)=O)c1,inactive: 5.4% [at 46.1 µM],–
COc1ccc(/C=N/NC(=O)COc2cccc3cccnc23)cc1OC,–,"inconclusive: 22.4 µM [activator, single point]"
N/C(=N\O)c1ccc(NC(=O)c2cccs2)cc1,–,"inconclusive: 23.1 µM [activator, partial curve, poor fit]"
CS(=O)(=O)N(CC(=O)NCc1ccc2c(c1)OCO2)Cc1ccc(Cl)cc1,–,"inconclusive: 1.26 µM [activator, single point]"
CCOC(=O)c1c(NC(C)=O)sc2c(O)cccc12,inactive: -4.75%,–
Cc1ccc(Cl)cc1NC(=O)COC(=O)CC(C)(C)C,–,"inconclusive: 11.2 µM [inhibitor, partial curve, poor fit]"
Cc1cc(C(=O)COC(=O)c2ccc(O)cc2)c(C)n1CCc1ccc(F)cc1,inactive: 1.1% [at 46.1 µM],–
COC(=O)CC1=CO[C@@H](O)[C@@H]2C(CO)=CC[C@@H]12,inactive: 15.9% [at 14.2 µM],–
COc1ccc(C(=O)N/N=C/c2ccc3cccc(O)c3n2)cc1,–,"inconclusive: 35.5 µM [inhibitor, single point]"
CSC1=N/C(=C\c2ccc(Cl)cc2)C(=O)N1N(C)C,inactive: -2.96% [at 46.1 µM],–
O=C1CCCC2=C1C(c1ccc(O)c(O)c1)Nc1ccc3ccccc3c12 (stereo not drawn),–,"inconclusive: 35.5 µM [activator, single point]"
Oc1ccc(Nc2nc(N3CCCC3)c3ccccc3n2)cc1,–,active: 11.2 µM
CC1=CC(C)C(/C=N/N=C(N)N)C(C)C1 (stereo not drawn),–,"inconclusive: 35.5 µM [inhibitor, single point]"

Structure (SMILES),"activity change, negative = inhibition",Potency
COc1ccc(C(c2nnnn2CCc2ccccc2)N2CCN(C3CCCC3)CC2)cc1 (stereo not drawn),–,"inconclusive: 11.2 µM [inhibitor, partial curve, poor fit]"
O=C(CSc1ccc(Cl)cc1)NC(=O)NCc1ccco1,inactive: -18.2% [at 46.1 µM],–
O=C(CN1C(=O)NC2(CCCC2)C1=O)Nc1cccc(Cl)c1,–,"inconclusive: 11.2 µM [activator, partial curve, poor fit]"
Oc1ccccc1N1CCN(c2ncnc3scc(-c4ccccc4)c23)CC1,–,"inconclusive: 15.8 µM [inhibitor, single point]"
CCOC(=O)C1=NNC(C(=O)c2ccc(C)cc2)C1c1ccc(C)cc1 (stereo not drawn),–,"inconclusive: 5.62 µM [activator, single point]"
CNC(=O)c1ccc2c(c1)N=C(C)c1cc(C)ccc1S2,–,"inconclusive: 3.16 µM [inhibitor, single point]"
CCOC(=O)c1cc2sc(C)cc2n1CC(=O)Nc1ccc2c(c1)OCCO2,inactive: -24%,–
Cc1ccc(C)c(S(=O)(=O)c2cn(Cc3ccccc3)c3cc(F)c(F)cc3c2=O)c1,–,"inconclusive: 35.5 µM [inhibitor, single point]"
CC(C)CNS(=O)(=O)c1cc(C(=O)OCC(=O)c2ccc3c(c2)OCCO3)c(Cl)cc1Cl,–,"inconclusive: 4.47 µM [inhibitor, single point]"
O=C(NCc1ccco1)C1CCN(S(=O)(=O)c2cccc([N+](=O)[O-])c2)CC1,inactive: 15.9% [at 46.1 µM],–
COc1ccc(N(C(=O)c2snc(C(N)=O)c2N)C(C(=O)NC2CCCCC2)c2ccc(F)cc2)c(OC)c1 (stereo not drawn),–,"inconclusive: 0.794 µM [inhibitor, full curve, poor fit]"
N=c1sccn1CC(=O)Nc1ccc(S(=O)(=O)N2CCOCC2)cc1,inactive: -0.0512%,–
O=C(CNC(=O)c1ccccc1)NCCCSc1ccccc1,inactive: 0.377%,–
CCCN1CCCC2Cc3[nH]ncc3CC21 (stereo not drawn),–,"inconclusive: 0.158 µM [inhibitor, full curve, poor fit]"
Cc1cc(C)c(C)c(OCCOCCNCc2ccccc2)c1,–,"inconclusive: 14.6 µM [inhibitor, single point]"
O=C(NC1CCN(Cc2ccccc2)CC1)c1ccccc1OCc1ccccc1Cl,–,"inconclusive: 2.82 µM [inhibitor, partial curve, poor fit]"
O=C(NC1CC1)c1ccc(S(=O)(=O)NC2CCCCCC2)cc1,–,"inconclusive: 1.46 µM [inhibitor, full curve, poor fit]"
C/C(=N/NC(N)=S)c1ccc(Br)s1,–,"inconclusive: 11.2 µM [inhibitor, partial curve, poor fit]"
FC(F)(F)c1ccccc1NC1=NCCCS1,inactive: -21.9% [at 46.1 µM],–
O=c1c2ccccc2nc2n1CC/C2=C/N1CCN(c2cccc(C(F)(F)F)c2)CC1,–,"inconclusive: 29.1 µM [inhibitor, single point]"
Cc1cc(C(=O)NC2CCCc3c2cnn3-c2cccc(C)c2C)no1 (stereo not drawn),–,"inconclusive: 0.316 µM [inhibitor, full curve, poor fit]"
O=C(c1cccc([N+](=O)[O-])c1)n1nc(-c2ccccc2)nc1NCc1ccccc1,inactive: 0%,–
O=c1c2ccccc2nnn1CSc1nnc(-c2cccs2)n1Cc1ccccc1,–,active: 0.82 µM
COCCCNCCCOc1ccc(Cl)cc1Br,–,active: 16.4 µM
Cc1cc(C(F)(F)F)n2nc(-c3cnn(C)c3C(F)(F)F)c(Br)c2n1,–,"inconclusive: 20 µM [inhibitor, partial curve, poor fit]"

Structure (SMILES),"activity change, negative = inhibition",Potency
Cc1cccc(NC(=O)CSc2n[nH]c(-c3cccnc3)n2)c1,–,"inconclusive: 0.631 µM [inhibitor, full curve, poor fit]"
Cc1cccc(CCNC(=O)C2CCC(=O)N(Cc3ccc(Cl)cc3)C2)n1 (stereo not drawn),inactive: 22%,–
CCOC(=O)CSc1ncc(OC)c(=O)[nH]1,inactive: -29.5%,–
CC1CC1C(=O)OCC(=O)Nc1ncc(Cl)cc1Cl (stereo not drawn),inactive: 2.14% [at 46.1 µM],–
CC(C)CC1c2[nH]c3ccccc3c2CCN1C(=O)c1cnccn1 (stereo not drawn),–,active: 2.82 µM
C[C@H](N)C(=O)OC(C)(C)Cc1ccc(Cl)cc1,inactive: -14.3%,–
O=C(NNC(=O)C1CC(c2cccnc2)=NO1)Nc1ccccc1F (stereo not drawn),–,"inconclusive: 6.51 µM [activator, partial curve, poor fit]"
O=C(COC(=O)/C=C/c1cccc(C(F)(F)F)c1)NC(=O)NC1CCCC1,–,"inconclusive: 0.126 µM [inhibitor, full curve, poor fit]"
C=CCOc1ccc2c(c1)c(S(=O)(=O)c1ccc(C)cc1)cn2COC,–,"inconclusive: 29.1 µM [inhibitor, single point]"
CCCOC(=O)c1ccc(NC(=O)COC)cc1,–,"inconclusive: 0.501 µM [activator, full curve, poor fit]"
Cc1ccc(-n2nc(-c3cccnc3)cc2C(=O)N2CCOCC2)c(C)c1,inactive: 22.6% [at 46.1 µM],–
Cc1ccc2c(c1)-c1c(ssc1=S)C(C)(C)N2C(=O)CSc1nncn1C,–,"inconclusive: 0.398 µM [inhibitor, full curve, poor fit]"
COc1ccc(CCCc2n[nH]c(=S)o2)cc1C,–,"inconclusive: 12.6 µM [activator, partial curve, poor fit]"
COc1cc(NC(=O)CSc2nccc(C)n2)c(C)cc1[N+](=O)[O-],–,"inconclusive: 5.62 µM [activator, single point]"
CN(C)c1ccc(NC(=O)CCSc2nc(-c3ccco3)cc(C(F)(F)F)n2)cc1,inactive: 27.7% [at 46.1 µM],–
COc1ccc(CCN(C)C(=O)/C=C/c2c(Cl)nc3ccccn23)cc1OC,inactive: 6.94% [at 46.1 µM],–
Cc1ccc(C(=O)NCCC2=CCCCC2)cc1S(=O)(=O)N1CCOCC1,–,"inconclusive: 5.62 µM [activator, single point]"
Cc1csc(NC(=O)CSc2nc3[nH]c(=O)cc(O)c3s2)n1,–,"inconclusive: 8.91 µM [inhibitor, partial curve, poor fit]"
Fc1ccccc1/C=C/c1ccc2ccccc2n1,–,"inconclusive: 8.91 µM [inhibitor, partial curve, poor fit]"
Cn1c(=O)n(C)c2cc(NS(=O)(=O)c3ccc(Br)cc3)c(NCc3ccccc3)cc21,–,"inconclusive: 17.8 µM [activator, single point]"
O=S(=O)(c1cccc2nonc12)N1CCCCC1,–,"inconclusive: 0.891 µM [inhibitor, full curve, poor fit]"
Nc1ccc(N=Nc2ccccc2)cc1[N+](=O)[O-],–,"inconclusive: 14.1 µM [activator, partial curve, poor fit]"
Cc1cc(C)c(S(=O)(=O)N2CCN(C(=O)CCn3nc(C)c(C)c3C)CC2)c(C)c1,–,"inconclusive: 6.31 µM [inhibitor, partial curve, poor fit]"

# Four neighbouring compounds already listed, quoted:
Structure (SMILES),"activity change, negative = inhibition",Potency
Cc1ccc2c(c1)-c1c(ssc1=S)C(C)(C)N2C(=O)CSc1nncn1C,–,"inconclusive: 0.398 µM [inhibitor, full curve, poor fit]"
COc1ccc(CCCc2n[nH]c(=S)o2)cc1C,–,"inconclusive: 12.6 µM [activator, partial curve, poor fit]"
COc1cc(NC(=O)CSc2nccc(C)n2)c(C)cc1[N+](=O)[O-],–,"inconclusive: 5.62 µM [activator, single point]"
CN(C)c1ccc(NC(=O)CCSc2nc(-c3ccco3)cc(C(F)(F)F)n2)cc1,inactive: 27.7% [at 46.1 µM],–
